Data as given in PubChem BioAssay AID1224831 (NIAID, 2016)

Aim: 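Genes that support or restrain LPS-induced TNF-alpha reporter activity in macrophage-like cells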 (follow-up of hits)
Cells: human THP-1 B5 monocytic leukaemia cells carrying a TNF promoter luciferase reporter, made macrophage-like with PMA
Knock-down reagent: single siRNA against human genes, 50 nM
Duration: about 68 h of knock-down, then 4 h LPS
Treatment: LPS (Salmonella minnesota, TLR-grade) at 10 ng/ml for 4 h; PMA 5 ng/ml present during knock-down
Detection: 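TNF promoter reporter read as dual luciferase ratio after 4 h LPS, normalised per plate to its median, given as replicate mean robust z-score per siRNA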
Scale: TNF reporter z-score: higher = stronger LPS-induced TNF reporter signal; z-score, median over gene's siRNAs: higher = stronger TNF reporter signal across the gene's siRNAs
Active means: 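Two-sided call: reduced or raised TNF reporter signal counts as active once mean z reaches about -1 or below, or about 1.5 or above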
Meaning of the calls: active = changed TNF reporter (either direction); inactive = little change
Shown is one part, drawn at random, of about 3,500 reagents. 731 of them (21%) were called active. 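Active means either lowered or raised reporter signal; the gene-median score did not drive the per-siRNA calls.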 The numbers tell different reagents against one gene apart.

no.	gene	siRNA no.	TNF reporter z-score, replicate mean	z-score, median over gene's siRNAs	Outcome
1	LITAF (GeneID 9516)	1	2.41	0.855	active
2	LITAF (GeneID 9516)	2	-0.01	0.855	inactive
3	LITAF (GeneID 9516)	3	1.72	0.855	active
4	LITAF (GeneID 9516)	4	2.56	0.855	active
5	LITAF (GeneID 9516)	5	-0.24	0.855	inactive
6	LITAF (GeneID 9516)	6	-0.81	0.855	inactive
7	P2RY14 (GeneID 9934)	1	0.7	-0.055	inactive
8	P2RY14 (GeneID 9934)	2	-1.32	-0.055	active
9	P2RY14 (GeneID 9934)	3	-0.55	-0.055	inactive
10	P2RY14 (GeneID 9934)	4	-0.42	-0.055	inactive
11	P2RY14 (GeneID 9934)	5	0.31	-0.055	inactive
12	P2RY14 (GeneID 9934)	6	0.89	-0.055	inactive
13	RASAL2 (GeneID 9462)	1	-1.16	-0.835	active
14	RASAL2 (GeneID 9462)	2	0.59	-0.835	inactive
15	RASAL2 (GeneID 9462)	3	-0.11	-0.835	inactive
16	RASAL2 (GeneID 9462)	4	-0.85	-0.835	inactive
17	RASAL2 (GeneID 9462)	5	-0.82	-0.835	inactive
18	RASAL2 (GeneID 9462)	6	-1.1	-0.835	active
19	PITX1 (GeneID 5307)	1	-0.18	-0.445	inactive
20	PITX1 (GeneID 5307)	2	-0.48	-0.445	inactive
21	PITX1 (GeneID 5307)	3	-0.41	-0.445	inactive
22	PITX1 (GeneID 5307)	4	-0.02	-0.445	inactive
23	PITX1 (GeneID 5307)	5	-0.74	-0.445	inactive
24	PITX1 (GeneID 5307)	6	-1.51	-0.445	active
25	PDE2A (GeneID 5138)	1	0.79	0.005	inactive
26	PDE2A (GeneID 5138)	2	-0.98	0.005	inactive
27	PDE2A (GeneID 5138)	3	0.39	0.005	inactive
28	PDE2A (GeneID 5138)	4	1.16	0.005	inactive
29	PDE2A (GeneID 5138)	5	-0.38	0.005	inactive
30	PDE2A (GeneID 5138)	6	-0.81	0.005	inactive
31	GBE1 (GeneID 2632)	1	-0.17	-0.185	inactive
32	GBE1 (GeneID 2632)	2	1.01	-0.185	inactive
33	GBE1 (GeneID 2632)	3	-0.2	-0.185	inactive
34	GBE1 (GeneID 2632)	4	-0.23	-0.185	inactive
35	GBE1 (GeneID 2632)	5	0.13	-0.185	inactive
36	GBE1 (GeneID 2632)	6	-0.37	-0.185	inactive
37	TASOR (GeneID 23272)	1	1.6	1.12	active
38	TASOR (GeneID 23272)	2	1.12	1.12	inactive
39	TASOR (GeneID 23272)	3	1.12	1.12	inactive
40	TASOR (GeneID 23272)	4	1.78	1.12	active
41	TASOR (GeneID 23272)	5	0.12	1.12	inactive
42	TASOR (GeneID 23272)	6	-1.65	1.12	active
43	PLEKHA4 (GeneID 57664)	1	0.49	0.4	inactive
44	PLEKHA4 (GeneID 57664)	2	-1.22	0.4	active
45	PLEKHA4 (GeneID 57664)	3	-0.89	0.4	inactive
46	PLEKHA4 (GeneID 57664)	4	2.94	0.4	active
47	PLEKHA4 (GeneID 57664)	5	0.31	0.4	inactive
48	PLEKHA4 (GeneID 57664)	6	1.2	0.4	inactive
49	VGLL3 (GeneID 389136)	1	-0.34	-0.39	inactive
50	VGLL3 (GeneID 389136)	2	-0.44	-0.39	inactive
51	VGLL3 (GeneID 389136)	3	-0.32	-0.39	inactive
52	VGLL3 (GeneID 389136)	4	-0.87	-0.39	inactive
53	VGLL3 (GeneID 389136)	5	-0.69	-0.39	inactive
54	VGLL3 (GeneID 389136)	6	0.62	-0.39	inactive
55	MAFG (GeneID 4097)	1	0.04	-0.065	inactive
56	MAFG (GeneID 4097)	2	-0.17	-0.065	inactive
57	MAFG (GeneID 4097)	3	0.42	-0.065	inactive
58	MAFG (GeneID 4097)	4	0.26	-0.065	inactive
59	MAFG (GeneID 4097)	5	-0.4	-0.065	inactive
60	MAFG (GeneID 4097)	6	-0.86	-0.065	inactive
61	EFCAB11 (GeneID 90141)	1	-0.5	-0.685	inactive
62	EFCAB11 (GeneID 90141)	2	-0.89	-0.685	inactive
63	EFCAB11 (GeneID 90141)	3	-2.52	-0.685	active
64	EFCAB11 (GeneID 90141)	4	0.29	-0.685	inactive
65	EFCAB11 (GeneID 90141)	5	-0.87	-0.685	inactive
66	EFCAB11 (GeneID 90141)	6	-0.5	-0.685	inactive
67	AAMDC (GeneID 28971)	1	-0.2	0.13	inactive
68	AAMDC (GeneID 28971)	2	-0.29	0.13	inactive
69	AAMDC (GeneID 28971)	3	0.46	0.13	inactive
70	AAMDC (GeneID 28971)	4	-1.89	0.13	active
71	AAMDC (GeneID 28971)	5	3.78	0.13	active
72	AAMDC (GeneID 28971)	6	1.56	0.13	active
73	SLC35D4 (GeneID 85019)	1	0.36	0.115	inactive
74	SLC35D4 (GeneID 85019)	2	-0.61	0.115	inactive
75	SLC35D4 (GeneID 85019)	3	0.36	0.115	inactive
76	SLC35D4 (GeneID 85019)	4	-0.02	0.115	inactive
77	SLC35D4 (GeneID 85019)	5	-1.17	0.115	active
78	SLC35D4 (GeneID 85019)	6	0.25	0.115	inactive
79	UBASH3A (GeneID 53347)	1	-0.07	0.445	inactive
80	UBASH3A (GeneID 53347)	2	0.68	0.445	inactive
81	UBASH3A (GeneID 53347)	3	0.63	0.445	inactive
82	UBASH3A (GeneID 53347)	4	1.37	0.445	inactive
83	UBASH3A (GeneID 53347)	5	0.26	0.445	inactive
84	UBASH3A (GeneID 53347)	6	-0.15	0.445	inactive

A few values from the entries so far.
Value of PLEKHA4 (GeneID 57664) #5 in “Outcome”: inactive
EFCAB11 (GeneID 90141) #5, TNF reporter z-score, replicate mean: -0.87
Value of PLEKHA4 (GeneID 57664) #6 under “z-score, median over gene's siRNAs”: 0.4
Value of MAFG (GeneID 4097) #1 under “z-score, median over gene's siRNAs”: -0.065
RASAL2 (GeneID 9462) #2, TNF reporter z-score, replicate mean = 0.59
LITAF (GeneID 9516) #4, z-score, median over gene's siRNAs: 0.855
